Assay results from patent publication US20170157250A1.
No constants are given. Whether binding was seen depends on the method and setting.

Amino acid sequences for entries named in this document (tags omitted). A change or cut given only in a name is not applied to a line headed by its entry. Residues count along the entry.
UniProt P30530: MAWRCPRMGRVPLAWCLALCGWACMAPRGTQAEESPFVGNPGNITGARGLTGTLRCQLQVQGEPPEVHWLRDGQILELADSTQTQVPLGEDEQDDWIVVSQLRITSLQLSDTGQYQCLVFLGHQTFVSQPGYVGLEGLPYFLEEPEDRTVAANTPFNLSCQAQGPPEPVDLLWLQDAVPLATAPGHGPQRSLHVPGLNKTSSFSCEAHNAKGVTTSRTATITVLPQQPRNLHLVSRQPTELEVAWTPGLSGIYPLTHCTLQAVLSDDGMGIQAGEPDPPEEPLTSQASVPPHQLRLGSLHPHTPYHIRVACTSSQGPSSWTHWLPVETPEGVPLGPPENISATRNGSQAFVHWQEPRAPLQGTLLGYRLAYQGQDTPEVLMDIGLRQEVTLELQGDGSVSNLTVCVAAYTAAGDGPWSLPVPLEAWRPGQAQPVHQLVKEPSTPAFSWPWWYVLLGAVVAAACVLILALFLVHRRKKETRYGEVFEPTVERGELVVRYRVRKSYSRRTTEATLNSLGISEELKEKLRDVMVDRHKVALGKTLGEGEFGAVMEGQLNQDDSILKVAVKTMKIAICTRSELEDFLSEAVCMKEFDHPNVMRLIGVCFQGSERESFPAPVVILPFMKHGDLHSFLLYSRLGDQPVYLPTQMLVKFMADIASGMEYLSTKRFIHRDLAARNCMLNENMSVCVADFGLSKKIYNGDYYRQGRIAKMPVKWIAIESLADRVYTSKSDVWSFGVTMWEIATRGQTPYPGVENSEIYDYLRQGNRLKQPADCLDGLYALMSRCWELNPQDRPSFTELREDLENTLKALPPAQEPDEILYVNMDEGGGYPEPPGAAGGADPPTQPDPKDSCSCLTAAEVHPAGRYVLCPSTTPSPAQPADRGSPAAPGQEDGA
UniProt Q06418, residues 41-890: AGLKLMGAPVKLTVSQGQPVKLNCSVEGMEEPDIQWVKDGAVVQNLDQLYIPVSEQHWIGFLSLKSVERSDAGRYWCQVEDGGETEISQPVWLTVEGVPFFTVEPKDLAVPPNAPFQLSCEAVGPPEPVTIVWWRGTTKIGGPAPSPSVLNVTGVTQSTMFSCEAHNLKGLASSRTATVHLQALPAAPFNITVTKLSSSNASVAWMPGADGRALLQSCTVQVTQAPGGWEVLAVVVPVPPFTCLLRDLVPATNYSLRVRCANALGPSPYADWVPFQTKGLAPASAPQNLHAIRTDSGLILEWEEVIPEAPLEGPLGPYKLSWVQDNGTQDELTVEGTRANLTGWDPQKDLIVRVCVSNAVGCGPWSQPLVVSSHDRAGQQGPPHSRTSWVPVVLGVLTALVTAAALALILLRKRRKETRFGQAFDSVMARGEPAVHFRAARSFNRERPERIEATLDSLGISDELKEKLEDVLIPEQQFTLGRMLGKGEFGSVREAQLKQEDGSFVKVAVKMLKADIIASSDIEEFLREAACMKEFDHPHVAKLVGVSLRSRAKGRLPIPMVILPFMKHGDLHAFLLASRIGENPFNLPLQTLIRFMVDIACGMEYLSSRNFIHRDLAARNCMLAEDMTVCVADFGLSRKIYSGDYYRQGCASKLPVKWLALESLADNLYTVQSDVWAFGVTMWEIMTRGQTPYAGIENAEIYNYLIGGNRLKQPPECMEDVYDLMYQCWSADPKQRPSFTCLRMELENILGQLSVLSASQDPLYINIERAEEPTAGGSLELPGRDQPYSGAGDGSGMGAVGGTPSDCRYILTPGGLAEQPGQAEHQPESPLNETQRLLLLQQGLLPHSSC
UniProt Q12866, residues 21-999: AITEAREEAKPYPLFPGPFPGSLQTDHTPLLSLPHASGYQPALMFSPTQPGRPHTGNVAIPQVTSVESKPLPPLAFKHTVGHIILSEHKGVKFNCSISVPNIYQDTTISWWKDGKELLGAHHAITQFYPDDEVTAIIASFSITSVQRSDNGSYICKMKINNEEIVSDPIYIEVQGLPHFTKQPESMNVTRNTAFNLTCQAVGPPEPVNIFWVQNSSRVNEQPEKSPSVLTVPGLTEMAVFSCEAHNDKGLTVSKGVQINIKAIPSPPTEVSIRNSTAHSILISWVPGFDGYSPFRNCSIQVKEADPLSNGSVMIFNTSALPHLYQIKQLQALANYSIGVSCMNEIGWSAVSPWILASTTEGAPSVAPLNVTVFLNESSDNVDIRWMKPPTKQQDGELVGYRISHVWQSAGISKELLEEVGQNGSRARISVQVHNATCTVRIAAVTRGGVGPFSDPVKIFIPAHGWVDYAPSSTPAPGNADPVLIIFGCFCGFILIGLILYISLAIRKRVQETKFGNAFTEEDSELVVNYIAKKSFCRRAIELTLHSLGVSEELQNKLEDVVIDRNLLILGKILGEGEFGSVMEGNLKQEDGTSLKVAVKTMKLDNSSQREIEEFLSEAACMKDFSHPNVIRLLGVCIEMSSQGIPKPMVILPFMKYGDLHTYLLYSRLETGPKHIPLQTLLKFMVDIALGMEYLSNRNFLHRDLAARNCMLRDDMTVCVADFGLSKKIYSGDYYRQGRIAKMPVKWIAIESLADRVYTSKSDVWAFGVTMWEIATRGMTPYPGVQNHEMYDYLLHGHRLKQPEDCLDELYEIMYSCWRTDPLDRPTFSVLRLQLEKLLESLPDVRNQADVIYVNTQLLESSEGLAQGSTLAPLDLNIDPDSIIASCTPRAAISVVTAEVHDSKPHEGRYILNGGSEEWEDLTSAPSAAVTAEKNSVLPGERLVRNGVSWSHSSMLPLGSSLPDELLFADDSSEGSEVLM

B1: IgG1-AXL-726 (antibody, V domains shown)
VH: QVQLQQWGAGLLKPSETLSLTCAIDGGSFSGYYWSWIRQPPGKGLEWIGEISHSGRTNYNPSLKSRVTISIDTSKNQFSLKLSSVAAADTAVYYCARFITMIRGAIITHFDYWGQGALVTVSS
VL: DIQMTQSPSSLSASVGDRVTITCRASQGISSWLAWYQQKPEKAPKSLIYAASSLQSGVPSRFSGSGSGTDFTLTISSLQPEDFATYYCQQYHSYPYTFGQGTKLEIK
B2: IgG1-AXL-148 (antibody, V domains shown)
VH: EVQLLESGGGLVQPGGSLRLSCAASGFTFSSYAMTWVRQAPGKGLEWVSAISISGGSTFYADSVKGRFTISRDNSKNTLYLQMNSLRAEDTAVYYCRGYSGYVYDAFDFWGQGTMVTVSS
VL: DIQMTQSPSSLSASVGDRVTITCRASQGISNWLAWYQQKPEKAPKSLIYAASSLQSGVPSRFSGSGSGTDFTLTISSLQPEDFATYYCQQYNSYPLTFGGGTKVEIK
B3: IgG1-AXL-183-N52Q (antibody, V domains shown)
VH: QVQLQQWGAGLLKPSETLSLTCAVYGGSFSGYYWSWIRQPPGKGLEWIGEIQQSGSTNYNPSLKSRVTISVDTSKNQFSLKLSSVTAADTSVYYCASGNWDHFFDYWGQGTLVTVSS
VL: DIQMTQSPSSVSASVGDRVTITCRASQGISSWLAWYQHKPGKAPKLLIYATSSLQSGVTSRFSGSGSGTDFTLTISSLQPEDFATYYCQQAKSFPWTFGQGTKVEIK
B4: IgG1-AXL-511 (antibody, V domains shown)
VH: EVQLLESGGGLVQPGGSLRLSCAASGFTFSSYAMNWVRQAPGKGLEWVSGISGSGGHTYHADSVKGRFTISRDNSKNTLYLQMNSLRAEDTAVYYCAKDRYDILTGYYNLLDYWGQGTLVTVSS
VL: DIQMTQSPSSLSASVGDRVTITCRASQGISSWLAWYQQKPEEAPKSLIYAASSLQSGVPSRFSGSGSGTDFTLTISSLQPEDFATYYCQQYNSYPLTFGGGAKVEIK
B5: IgG1-AXL-726-M101L (antibody, V domains shown)
VH: QVQLQQWGAGLLKPSETLSLTCAIDGGSFSGYYWSWIRQPPGKGLEWIGEISHSGRTNYNPSLKSRVTISIDTSKNQFSLKLSSVAAADTAVYYCARFITLIRGAIITHFDYWGQGALVTVSS
VL: DIQMTQSPSSLSASVGDRVTITCRASQGISSWLAWYQQKPEKAPKSLIYAASSLQSGVPSRFSGSGSGTDFTLTISSLQPEDFATYYCQQYHSYPYTFGQGTKLEIK
B6: IgG1-AXL-733 (antibody, V domains shown)
VH: QVQLVESGGGVVQPGRSLRLSCAASGFSFSTYAMHWVRQAPGKGLEWVAVISYDGDNKYSADSVKGRFTISRDNSKNTLYLQMNSLRAEDTAVYYCARGRKLGIDAFDIWGQGTMVTVSS
VL: AIQLTQSPSSLSASVGDRVTITCRASQGISSALAWYQQKPGKAPKLLIYDASSLESGVPSRFSGSGSGTDFTLTISGLQPEDFATYYCQQFNSYPFTFGPGTKVDIK

Tests used:
[1] = biological target: Homo sapiens AXL-Mus musculus FN2 domain (p33-AXL-mFN2) (human-mouse chimera) (UniProt P30530); experiment: flow cytometry, HEK293F cells expressing the chimera
[2] = biological target: Homo sapiens AXL-Mus musculus FN2 domain (p33-AXL-mFN2) (human-mouse chimera) (UniProt P30530); experiment: flow cytometry, 1 µg/mL antibody, HEK293F cells expressing hsAxl-mmFN2 (human AXL with the mouse FN2 domain), PE-anti-human IgG
human TYRO3 (human) = human TYRO3 (human) (UniProt Q06418); experiment: flow cytometry, HEK-293F cells transfected with full length human TYRO3, 4-fold dilutions of antibody, PE-anti-human IgG F(ab')2
human MER (human) = human MER (human) (UniProt Q12866); experiment: flow cytometry, HEK-293F cells transfected with full length human MER, 4-fold dilutions of antibody, PE-anti-human IgG F(ab')2

Binder	binding [1]	binding [2]	binding (human TYRO3 (human))	binding (human MER (human))
B1	no binding (tested: 1 µg/mL)	no binding (tested: 1 µg/mL)	–	–
B2	–	–	no binding (tested: 10 µg/mL)	no binding (tested: 10 µg/mL)
B3	–	–	no binding (tested: 10 µg/mL)	no binding (tested: 10 µg/mL)
B4	–	–	no binding (tested: 10 µg/mL)	no binding (tested: 10 µg/mL)
B5	–	–	no binding (tested: 10 µg/mL)	no binding (tested: 10 µg/mL)
B6	–	–	no binding (tested: 10 µg/mL)	no binding (tested: 10 µg/mL)
